PubChem BioAssay AID1224827 – NIAID – 2016
The whole screen tested about 3,800 reagents; shown is an unselected part. Of all reagents, about 2,200 (57%) got an active call. 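Active means a strong reporter change in either direction; calls are per siRNA, not per gene; qiagen siRNAs gave weaker effects.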 The numbers tell different reagents against one gene apart. Further read-outs or replicates are left out here.

Test: 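Retest primary hits on a TNF reporter with six siRNAs per gene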 (follow-up of hits)
Cells: RAW264.7 G9 mouse macrophage reporter clone
Reagents: single siRNA against mouse genes, 100 nM siRNA
Time to read-out: siRNA for 2 days, then LPS about 16 h
Conditions: bacterial lipopolysaccharide (LPS), 10 ng/ml, cells fixed after overnight (about 16 h) stimulation
Detection: 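TNF promoter reporter red fluorescence in nuclei, background subtracted, normalised per plate and to non-targeting control siRNA, as z-scores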
Reading the numbers: TNF reporter z-score, mean: higher = stronger Tnf promoter reporter signal; gene median z, three same-vendor siRNAs: higher = stronger Tnf reporter signal for the gene
Rule for the call: 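Active siRNA: replicate-mean z-score of 2 or more, or -2 or less; no calls for control wells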

{"gene": "Or52u1", "reagent": 1, "TNF reporter z-score, mean": 1.14, "gene median z, three same-vendor siRNAs": -0.586, "call": "inactive"}
{"gene": "Or52u1", "reagent": 2, "TNF reporter z-score, mean": 0.751, "gene median z, three same-vendor siRNAs": -0.586, "call": "inactive"}
{"gene": "Or52u1", "reagent": 3, "TNF reporter z-score, mean": -5.17, "gene median z, three same-vendor siRNAs": -0.586, "call": "active"}
{"gene": "Or52u1", "reagent": 4, "TNF reporter z-score, mean": 3.37, "gene median z, three same-vendor siRNAs": -0.758, "call": "active"}
{"gene": "Or52u1", "reagent": 5, "TNF reporter z-score, mean": -0.871, "gene median z, three same-vendor siRNAs": -0.758, "call": "inactive"}
{"gene": "Or52u1", "reagent": 6, "TNF reporter z-score, mean": -1.53, "gene median z, three same-vendor siRNAs": -0.758, "call": "inactive"}
{"gene": "Msn", "reagent": 1, "TNF reporter z-score, mean": -0.134, "gene median z, three same-vendor siRNAs": -2.36, "call": "inactive"}
{"gene": "Msn", "reagent": 2, "TNF reporter z-score, mean": -2.36, "gene median z, three same-vendor siRNAs": -2.36, "call": "active"}
{"gene": "Msn", "reagent": 3, "TNF reporter z-score, mean": -5.26, "gene median z, three same-vendor siRNAs": -2.36, "call": "active"}
{"gene": "Msn", "reagent": 4, "TNF reporter z-score, mean": 3.99, "gene median z, three same-vendor siRNAs": 3.03, "call": "active"}
{"gene": "Msn", "reagent": 5, "TNF reporter z-score, mean": 3.87, "gene median z, three same-vendor siRNAs": 3.03, "call": "active"}
{"gene": "Msn", "reagent": 6, "TNF reporter z-score, mean": 2.17, "gene median z, three same-vendor siRNAs": 3.03, "call": "active"}
{"gene": "Tcf20", "reagent": 1, "TNF reporter z-score, mean": 0.151, "gene median z, three same-vendor siRNAs": -3.21, "call": "inactive"}
{"gene": "Tcf20", "reagent": 2, "TNF reporter z-score, mean": -3.38, "gene median z, three same-vendor siRNAs": -3.21, "call": "active"}
{"gene": "Tcf20", "reagent": 3, "TNF reporter z-score, mean": -4.3, "gene median z, three same-vendor siRNAs": -3.21, "call": "active"}
{"gene": "Tcf20", "reagent": 4, "TNF reporter z-score, mean": 1.85, "gene median z, three same-vendor siRNAs": 0.129, "call": "inactive"}
{"gene": "Tcf20", "reagent": 5, "TNF reporter z-score, mean": 0.968, "gene median z, three same-vendor siRNAs": 0.129, "call": "inactive"}
{"gene": "Tcf20", "reagent": 6, "TNF reporter z-score, mean": -0.323, "gene median z, three same-vendor siRNAs": 0.129, "call": "inactive"}

An excerpt from above, showing only “TNF reporter z-score, mean”:
Msn #5: 3.87
Msn #6: 2.17

The listing continues:
{"gene": "Polr2b", "reagent": 1, "TNF reporter z-score, mean": 2.68, "gene median z, three same-vendor siRNAs": -1.92, "call": "active"}
{"gene": "Polr2b", "reagent": 2, "TNF reporter z-score, mean": -1.92, "gene median z, three same-vendor siRNAs": -1.92, "call": "inactive"}
{"gene": "Polr2b", "reagent": 3, "TNF reporter z-score, mean": -5.09, "gene median z, three same-vendor siRNAs": -1.92, "call": "active"}
{"gene": "Polr2b", "reagent": 4, "TNF reporter z-score, mean": 0.0226, "gene median z, three same-vendor siRNAs": -2.53, "call": "inactive"}
{"gene": "Polr2b", "reagent": 5, "TNF reporter z-score, mean": -2.66, "gene median z, three same-vendor siRNAs": -2.53, "call": "active"}
{"gene": "Polr2b", "reagent": 6, "TNF reporter z-score, mean": -3.01, "gene median z, three same-vendor siRNAs": -2.53, "call": "active"}
{"gene": "Ufd1", "reagent": 1, "TNF reporter z-score, mean": -0.397, "gene median z, three same-vendor siRNAs": -2.24, "call": "inactive"}
{"gene": "Ufd1", "reagent": 2, "TNF reporter z-score, mean": -2.26, "gene median z, three same-vendor siRNAs": -2.24, "call": "active"}
{"gene": "Ufd1", "reagent": 3, "TNF reporter z-score, mean": -2.73, "gene median z, three same-vendor siRNAs": -2.24, "call": "active"}
{"gene": "Ufd1", "reagent": 4, "TNF reporter z-score, mean": 0.981, "gene median z, three same-vendor siRNAs": -0.755, "call": "inactive"}
{"gene": "Ufd1", "reagent": 5, "TNF reporter z-score, mean": -0.755, "gene median z, three same-vendor siRNAs": -0.755, "call": "inactive"}
{"gene": "Ufd1", "reagent": 6, "TNF reporter z-score, mean": -1.9, "gene median z, three same-vendor siRNAs": -0.755, "call": "inactive"}
{"gene": "Zfp935", "reagent": 1, "TNF reporter z-score, mean": 7.63, "gene median z, three same-vendor siRNAs": -3.26, "call": "active"}
{"gene": "Zfp935", "reagent": 2, "TNF reporter z-score, mean": -3.33, "gene median z, three same-vendor siRNAs": -3.26, "call": "active"}
{"gene": "Zfp935", "reagent": 3, "TNF reporter z-score, mean": -3.59, "gene median z, three same-vendor siRNAs": -3.26, "call": "active"}
{"gene": "Zfp935", "reagent": 4, "TNF reporter z-score, mean": -1.29, "gene median z, three same-vendor siRNAs": -1.49, "call": "inactive"}
{"gene": "Zfp935", "reagent": 5, "TNF reporter z-score, mean": -1.97, "gene median z, three same-vendor siRNAs": -1.49, "call": "inactive"}
{"gene": "Zfp935", "reagent": 6, "TNF reporter z-score, mean": -2.53, "gene median z, three same-vendor siRNAs": -1.49, "call": "active"}
{"gene": "Aplp2", "reagent": 1, "TNF reporter z-score, mean": -1.36, "gene median z, three same-vendor siRNAs": -2.57, "call": "inactive"}
{"gene": "Aplp2", "reagent": 2, "TNF reporter z-score, mean": -2.57, "gene median z, three same-vendor siRNAs": -2.57, "call": "active"}
{"gene": "Aplp2", "reagent": 3, "TNF reporter z-score, mean": -3.62, "gene median z, three same-vendor siRNAs": -2.57, "call": "active"}
{"gene": "Aplp2", "reagent": 4, "TNF reporter z-score, mean": 0.401, "gene median z, three same-vendor siRNAs": -0.806, "call": "inactive"}
{"gene": "Aplp2", "reagent": 5, "TNF reporter z-score, mean": -0.543, "gene median z, three same-vendor siRNAs": -0.806, "call": "inactive"}
{"gene": "Aplp2", "reagent": 6, "TNF reporter z-score, mean": -2.35, "gene median z, three same-vendor siRNAs": -0.806, "call": "active"}
